Literature values in US20260384399A1, “INDAZOLE DERIVATIVES AS SEROTONERGIC AGENTS USEFUL FOR THE TREATMENT OF DISORDERS RELATED THERETO” (published 2026).

Tested on: 5-HT2 receptor
Conditions: daily administration; cited from earlier work

Structure (SMILES): CCN(CC)C(=O)[C@@H]1C=C2c3cccc4[nH]cc(c34)C[C@H]2N(C)C1
- 5-HT2 receptor density in rat brain: selectively decreased 5-HT2 receptor density; also recorded: reduce 5-HT2 receptor density in rat brain

“Also recorded” adds a separate entry of the source. Certain results were filed several times, with different values. This list holds those alone. An entry can have further records. The records of an entry differ for a reason that is not stated; dose, time, organism, isomer or construct need not be as stated for each record.
